Publication PMC5059642

By UniProt entry, the sequences of proteins in these tests, tags left out. Where a name states a change or a piece, a line headed by the entry shows the natural chain unless it says otherwise.
UniProt P0DMV8: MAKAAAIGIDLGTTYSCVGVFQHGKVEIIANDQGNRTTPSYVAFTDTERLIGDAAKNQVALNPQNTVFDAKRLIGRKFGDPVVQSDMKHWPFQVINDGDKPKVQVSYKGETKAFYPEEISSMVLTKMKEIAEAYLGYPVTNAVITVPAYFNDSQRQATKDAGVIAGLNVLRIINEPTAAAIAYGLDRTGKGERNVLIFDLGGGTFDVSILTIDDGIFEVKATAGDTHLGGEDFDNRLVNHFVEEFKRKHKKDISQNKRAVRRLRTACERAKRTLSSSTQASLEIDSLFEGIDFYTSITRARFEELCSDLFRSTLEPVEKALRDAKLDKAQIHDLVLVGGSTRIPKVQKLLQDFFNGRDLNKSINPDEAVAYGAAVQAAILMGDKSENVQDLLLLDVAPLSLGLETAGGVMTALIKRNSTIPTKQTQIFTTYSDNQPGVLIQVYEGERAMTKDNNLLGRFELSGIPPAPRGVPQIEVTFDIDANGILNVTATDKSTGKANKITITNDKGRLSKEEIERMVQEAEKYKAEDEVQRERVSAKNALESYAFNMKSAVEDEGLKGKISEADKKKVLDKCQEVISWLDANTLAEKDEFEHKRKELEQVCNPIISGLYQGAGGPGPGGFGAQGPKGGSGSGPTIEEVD

Target: T1, FLAG-ARD1 (human) (UniProt P41227)
T1 sequence: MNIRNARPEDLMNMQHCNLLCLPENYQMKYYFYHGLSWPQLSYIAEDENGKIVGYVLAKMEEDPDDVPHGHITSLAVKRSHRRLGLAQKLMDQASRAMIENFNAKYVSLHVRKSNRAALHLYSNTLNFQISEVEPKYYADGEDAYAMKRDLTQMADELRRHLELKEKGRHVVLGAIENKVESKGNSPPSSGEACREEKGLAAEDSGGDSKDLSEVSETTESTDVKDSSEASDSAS
Experiment: co-IP; FLAG-ARD1 precipitated from HEK293T cells; co-precipitation of Myc-Hsp70 or Myc-Hsc70 by western blotting

binding: binds
Substance: Myc-Hsp70 WT (from UniProt P0DMV8)

No constants are given. Whether binding was seen depends on the method and setting. In cells and extracts the contact can be indirect. A result given as binding can be weak or reduced; the word gives no strength. Where a sequence is shown, tags or fusion partners need not be part of it.
